The record followed here is PMC12594893.

Sequences of proteins named here, by UniProt entry; tags and fusion partners are left off. A change or cut given only in a name is not applied to a line headed by its entry.
UniProt Q6ZMG9: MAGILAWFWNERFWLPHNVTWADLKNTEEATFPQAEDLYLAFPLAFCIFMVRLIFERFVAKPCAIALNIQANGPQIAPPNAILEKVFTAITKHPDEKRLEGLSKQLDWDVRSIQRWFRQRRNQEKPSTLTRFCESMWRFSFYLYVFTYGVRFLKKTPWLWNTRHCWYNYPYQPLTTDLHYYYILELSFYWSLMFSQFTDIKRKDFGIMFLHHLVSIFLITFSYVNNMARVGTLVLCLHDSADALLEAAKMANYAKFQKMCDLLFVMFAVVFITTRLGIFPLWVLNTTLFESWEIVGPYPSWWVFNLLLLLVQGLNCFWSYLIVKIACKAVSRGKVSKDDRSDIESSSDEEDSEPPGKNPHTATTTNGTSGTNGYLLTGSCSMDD

These are yes or no findings as the source states them, for the method shown. In cells and extracts the contact can be indirect. A result given as binding can be weak or reduced; the word gives no strength.

The target of the experiment is CERS6 Tram-Lag-CLN8 (TLC) domain (128-384), truncated CERS6 (human) (UniProt Q6ZMG9). The experiment in a line: co-IP; truncated CERS6 (Hox domain 1-127, TLC domain 128-384) and RPN1; cells and tags not stated.

B1: RPN1 as used in the co-immunoprecipitation with truncated CERS6 (protein, UniProt P04843 24-607)
chain: ASSEAPPLINEDVKRTVDLSSHLAKVTAEVVLAHLGGGSTSRATSFLLALEPELEARLAHLGVQVKGEDEEENNLEVRETKIKGKSGRFFTVKLPVALDPGAKISVIVETVYTHVLHPYPTQITQSEKQFVVFEGNHYFYSPYPTKTQTMRVKLASRNVESYTKLGNPTRSEDLLDYGPFRDVPAYSQDTFKVHYENNSPFLTITSMTRVIEVSHWGNIAVEENVDLKHTGAVLKGPFSRYDYQRQPDSGISSIRSFKTILPAAAQDVYYRDEIGNVSTSHLLILDDSVEMEIRPRFPLFGGWKTHYIVGYNLPSYEYLYNLGDQYALKMRFVDHVFDEQVIDSLTVKIILPEGAKNIEIDSPYEISRAPDELHYTYLDTFGRPVIVAYKKNLVEQHIQDIVVHYTFNKVLMLQEPLLVVAAFYILFFTVIIYVRLDFSITKDPAAEARMKVACITEQVLTLVNKRIGLYRHFDETVNRYKQSRDISTLNSGKKSLETEHKALTSEIALLQSRLKTEGSDLCDRVSEMQKLDAQVKELVLKSAVEAERLVAGKLKKDTYIENEKLISGKRQELVTKIDHILDAL
Consider B1, for which the binding entry was “binds”.
